Measured values from publication PMC9450509.
Results are given in words; binding and its absence hold for the method and conditions named. In cells and extracts the contact can be indirect. Binding calls can cover weak binding; strength is not graded here. For some assays here: Where a sequence is shown, tags or fusion partners need not be part of it.

T1: endogenous cGAS (pig (endogenous in PK15)) (UniProt I3LM39)
T1 sequence: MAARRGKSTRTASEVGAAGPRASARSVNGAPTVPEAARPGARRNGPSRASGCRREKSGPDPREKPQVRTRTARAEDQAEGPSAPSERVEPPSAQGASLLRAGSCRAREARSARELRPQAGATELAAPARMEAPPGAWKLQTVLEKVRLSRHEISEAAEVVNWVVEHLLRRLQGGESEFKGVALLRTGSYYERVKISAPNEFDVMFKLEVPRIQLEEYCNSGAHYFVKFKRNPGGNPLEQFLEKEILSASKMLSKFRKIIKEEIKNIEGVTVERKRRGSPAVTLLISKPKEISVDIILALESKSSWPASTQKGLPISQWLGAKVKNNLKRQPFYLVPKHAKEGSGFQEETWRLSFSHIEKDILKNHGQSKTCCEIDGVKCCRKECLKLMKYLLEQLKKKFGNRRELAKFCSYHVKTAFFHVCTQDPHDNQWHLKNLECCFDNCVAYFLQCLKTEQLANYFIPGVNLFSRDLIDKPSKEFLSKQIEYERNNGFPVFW


What was measured:
[1] = biological target: T1, endogenous cGAS (pig (endogenous in PK15)); experiment: co-IP
[2] = biological target: Myc-DDX56 (porcine DDX56, Myc tag) (porcine); experiment: co-IP

Row | binding [1] | binding [2] | Molecule
1 | binds |  | Myc-DDX56 (porcine DDX56, Myc tag)
2 |  | binds | HA-cGAS (protein, UniProt I3LM39 1-495) MAARRGKSTRTASEVGAAGPRASARSVNGAPTVPEAARPGARRNGPSRASGCRREKSGPDPREKPQVRTRTARAEDQAEGPSAPSERVEPPSAQGASLLRAGSCRAREARSARELRPQAGATELAAPARMEAPPGAWKLQTVLEKVRLSRHEISEAAEVVNWVVEHLLRRLQGGESEFKGVALLRTGSYYERVKISAPNEFDVMFKLEVPRIQLEEYCNSGAHYFVKFKRNPGGNPLEQFLEKEILSASKMLSKFRKIIKEEIKNIEGVTVERKRRGSPAVTLLISKPKEISVDIILALESKSSWPASTQKGLPISQWLGAKVKNNLKRQPFYLVPKHAKEGSGFQEETWRLSFSHIEKDILKNHGQSKTCCEIDGVKCCRKECLKLMKYLLEQLKKKFGNRRELAKFCSYHVKTAFFHVCTQDPHDNQWHLKNLECCFDNCVAYFLQCLKTEQLANYFIPGVNLFSRDLIDKPSKEFLSKQIEYERNNGFPVFW
